Data as given in PubChem BioAssay AID1224831 (NIAID, 2016)
Here is a random part of about 3,500 deposited reagents. 731 of them (21%) were called active. 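Active means either lowered or raised reporter signal; the gene-median score did not drive the per-siRNA calls.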 Reagents against one gene are numbered here.

Aim: 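Confirming genome-wide hits on LPS-triggered TNF-alpha induction with independent siRNA sequences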 (follow-up of hits)
Cells: human THP-1 B5 monocytic leukaemia cells carrying a TNF promoter luciferase reporter, made macrophage-like with PMA
Reagent: single siRNA against human genes, 50 nM
Timing: about 68 h of knock-down, then 4 h LPS
Treatment: LPS (Salmonella minnesota, TLR-grade) at 10 ng/ml for 4 h; PMA 5 ng/ml present during knock-down
Detection: 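TNF promoter reporter read as dual luciferase ratio after 4 h LPS, normalised per plate to its median, given as replicate mean robust z-score per siRNA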
Scale: TNF reporter z-score: higher = stronger LPS-induced TNF reporter signal; z-score, median over gene's siRNAs: higher = stronger TNF reporter signal across the gene's siRNAs
Hit rule: 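Two-sided call: reduced or raised TNF reporter signal counts as active once mean z reaches about -1 or below, or about 1.5 or above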
Calls: active = changed TNF reporter (either direction); inactive = little change

TENT4B (GeneID 64282) #1 → TNF reporter z-score, replicate mean: 2.36; z-score, median over gene's siRNAs: 1.13; call: active
TENT4B (GeneID 64282) #2 → TNF reporter z-score, replicate mean: 1.58; z-score, median over gene's siRNAs: 1.13; call: active
TENT4B (GeneID 64282) #3 → TNF reporter z-score, replicate mean: 0.39; z-score, median over gene's siRNAs: 1.13; call: inactive
TENT4B (GeneID 64282) #4 → TNF reporter z-score, replicate mean: 0.68; z-score, median over gene's siRNAs: 1.13; call: inactive
TENT4B (GeneID 64282) #5 → TNF reporter z-score, replicate mean: -0.52; z-score, median over gene's siRNAs: 1.13; call: inactive
TENT4B (GeneID 64282) #6 → TNF reporter z-score, replicate mean: 2.46; z-score, median over gene's siRNAs: 1.13; call: active
PDXK (GeneID 8566) #1 → TNF reporter z-score, replicate mean: 0.18; z-score, median over gene's siRNAs: -0.49; call: inactive
PDXK (GeneID 8566) #2 → TNF reporter z-score, replicate mean: 0.49; z-score, median over gene's siRNAs: -0.49; call: inactive
PDXK (GeneID 8566) #3 → TNF reporter z-score, replicate mean: -1.44; z-score, median over gene's siRNAs: -0.49; call: active
PDXK (GeneID 8566) #4 → TNF reporter z-score, replicate mean: -1.16; z-score, median over gene's siRNAs: -0.49; call: active
PDXK (GeneID 8566) #5 → TNF reporter z-score, replicate mean: -1.4; z-score, median over gene's siRNAs: -0.49; call: active
PDXK (GeneID 8566) #6 → TNF reporter z-score, replicate mean: 0.33; z-score, median over gene's siRNAs: -0.49; call: inactive
RAPGEF1 (GeneID 2889) #1 → TNF reporter z-score, replicate mean: 0.89; z-score, median over gene's siRNAs: 0.805; call: inactive
RAPGEF1 (GeneID 2889) #2 → TNF reporter z-score, replicate mean: 0.78; z-score, median over gene's siRNAs: 0.805; call: inactive
RAPGEF1 (GeneID 2889) #3 → TNF reporter z-score, replicate mean: 0; z-score, median over gene's siRNAs: 0.805; call: inactive
RAPGEF1 (GeneID 2889) #4 → TNF reporter z-score, replicate mean: 0.37; z-score, median over gene's siRNAs: 0.805; call: inactive
RAPGEF1 (GeneID 2889) #5 → TNF reporter z-score, replicate mean: 1.27; z-score, median over gene's siRNAs: 0.805; call: inactive
RAPGEF1 (GeneID 2889) #6 → TNF reporter z-score, replicate mean: 0.83; z-score, median over gene's siRNAs: 0.805; call: inactive
PSMB1 (GeneID 5689) #1 → TNF reporter z-score, replicate mean: -1.2; z-score, median over gene's siRNAs: -1.08; call: active
PSMB1 (GeneID 5689) #2 → TNF reporter z-score, replicate mean: -0.72; z-score, median over gene's siRNAs: -1.08; call: inactive
PSMB1 (GeneID 5689) #3 → TNF reporter z-score, replicate mean: -0.91; z-score, median over gene's siRNAs: -1.08; call: inactive
PSMB1 (GeneID 5689) #4 → TNF reporter z-score, replicate mean: -0.97; z-score, median over gene's siRNAs: -1.08; call: inactive
PSMB1 (GeneID 5689) #5 → TNF reporter z-score, replicate mean: -1.46; z-score, median over gene's siRNAs: -1.08; call: active
PSMB1 (GeneID 5689) #6 → TNF reporter z-score, replicate mean: -1.67; z-score, median over gene's siRNAs: -1.08; call: active
PKIG (GeneID 11142) #1 → TNF reporter z-score, replicate mean: -0.57; z-score, median over gene's siRNAs: -0.23; call: inactive
PKIG (GeneID 11142) #2 → TNF reporter z-score, replicate mean: -0.51; z-score, median over gene's siRNAs: -0.23; call: inactive
PKIG (GeneID 11142) #3 → TNF reporter z-score, replicate mean: -0.28; z-score, median over gene's siRNAs: -0.23; call: inactive
PKIG (GeneID 11142) #4 → TNF reporter z-score, replicate mean: 0.06; z-score, median over gene's siRNAs: -0.23; call: inactive
PKIG (GeneID 11142) #5 → TNF reporter z-score, replicate mean: -0.18; z-score, median over gene's siRNAs: -0.23; call: inactive
PKIG (GeneID 11142) #6 → TNF reporter z-score, replicate mean: 1.06; z-score, median over gene's siRNAs: -0.23; call: inactive
HORMAD1 (GeneID 84072) #1 → TNF reporter z-score, replicate mean: -0.59; z-score, median over gene's siRNAs: 0.28; call: inactive
HORMAD1 (GeneID 84072) #2 → TNF reporter z-score, replicate mean: 2.15; z-score, median over gene's siRNAs: 0.28; call: active
HORMAD1 (GeneID 84072) #3 → TNF reporter z-score, replicate mean: -1.21; z-score, median over gene's siRNAs: 0.28; call: active
HORMAD1 (GeneID 84072) #4 → TNF reporter z-score, replicate mean: 1.36; z-score, median over gene's siRNAs: 0.28; call: inactive
HORMAD1 (GeneID 84072) #5 → TNF reporter z-score, replicate mean: 1.15; z-score, median over gene's siRNAs: 0.28; call: inactive
HORMAD1 (GeneID 84072) #6 → TNF reporter z-score, replicate mean: -0.71; z-score, median over gene's siRNAs: 0.28; call: inactive
TTBK2 (GeneID 146057) #1 → TNF reporter z-score, replicate mean: 0.18; z-score, median over gene's siRNAs: 0.095; call: inactive
TTBK2 (GeneID 146057) #2 → TNF reporter z-score, replicate mean: -0.1; z-score, median over gene's siRNAs: 0.095; call: inactive
TTBK2 (GeneID 146057) #3 → TNF reporter z-score, replicate mean: 0.01; z-score, median over gene's siRNAs: 0.095; call: inactive
TTBK2 (GeneID 146057) #4 → TNF reporter z-score, replicate mean: 1.18; z-score, median over gene's siRNAs: 0.095; call: inactive
TTBK2 (GeneID 146057) #5 → TNF reporter z-score, replicate mean: 0.43; z-score, median over gene's siRNAs: 0.095; call: inactive
TTBK2 (GeneID 146057) #6 → TNF reporter z-score, replicate mean: -1.32; z-score, median over gene's siRNAs: 0.095; call: active
